Laboratory results reported in the supplement of paper PMC12823440, “Inhibitors supercharge kinase turnover through native proteolytic circuits” (Nature, 2025).
This is one part of the list. Hit calls seldom repeat between salt and free forms of one compound.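 In K562 cells expressing nanoluciferase-fused kinases, luminescence was recorded at 4 h intervals between 2 and 18 h, normalized as percent of control with DMSO at 100% and a positive control at 0%. A significant (2 sigma) signal drop marks a time point as decreased. The authors' rule for a hit is not shown and takes in more than the number of time points.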

By UniProt entry, the sequences of proteins in these tests, tags left out. Where a name states a change or a piece, a line headed by the entry shows the natural chain unless it says otherwise.
UniProt P31749: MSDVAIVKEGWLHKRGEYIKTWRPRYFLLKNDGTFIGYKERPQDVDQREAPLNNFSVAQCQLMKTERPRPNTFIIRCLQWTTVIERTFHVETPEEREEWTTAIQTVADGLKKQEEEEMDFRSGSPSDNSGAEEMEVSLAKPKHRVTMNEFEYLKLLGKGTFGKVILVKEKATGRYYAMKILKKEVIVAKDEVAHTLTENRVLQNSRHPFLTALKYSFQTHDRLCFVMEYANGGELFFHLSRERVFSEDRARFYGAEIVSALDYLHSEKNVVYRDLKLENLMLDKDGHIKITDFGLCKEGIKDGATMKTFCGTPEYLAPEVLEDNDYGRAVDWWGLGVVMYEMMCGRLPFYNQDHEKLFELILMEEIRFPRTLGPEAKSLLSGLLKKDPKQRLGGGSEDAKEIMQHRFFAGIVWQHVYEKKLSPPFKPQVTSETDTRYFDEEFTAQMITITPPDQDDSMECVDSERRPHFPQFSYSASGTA

biological target: AKT1 (UniProt P31749); experiment: kinase-Nluc reporter destabilization hit call (1 = scored as downregulated) (binary); higher = compound decreases kinase abundance; settings: K562; 2-18 h

kinase-Nluc reporter destabilization hit call, inactive:
O=c1cc(O)cc(/C=C/c2ccc(O)c(O)c2)o1 [Hispidin] (10 µM) 0
CC1CN(C(=O)Nc2ccc(Cl)c(Cl)c2)C(=Nc2ccc(F)cc2)S1 (configuration not stated) (10 µM) 0
COc1cc2c[n+](C)c3c4cc5c(cc4ccc3c2cc1OC)OCO5 [Nitidine (chloride)] (2 µM) 0
Cc1c(CN2CCN(S(C)(=O)=O)CC2)sc2c(N3CCOCC3)nc(-c3cnc(N)nc3)nc12 (2.5 µM) 0
Cc1cc([C@H](C)Nc2ccccc2)c2oc(N3CCOCC3)cc(=O)c2c1 (10 µM) 0
O=C(CNC(=O)c1ccc(-c2ccccc2)cc1)NC1CCCc2ccccc21 (configuration not stated) [TAO Kinase inhibitor 1] (10 µM) 0
Cn1cc(-c2ccc(CNc3cc(-c4cnc5cc(OCCCN6CCCC6)ccn45)ncn3)cc2)cn1 (10 µM) 0
Cc1ccc(S(=O)(=O)Nc2ccccc2C=Nc2ccccc2NS(=O)(=O)c2ccc(C)cc2)cc1 (10 µM) 0
O=C(/C=C/c1ccc(O)c(O)c1)c1ccc(O[C@@H]2O[C@H](CO)[C@@H](O)[C@H](O)[C@H]2O)c(O)c1O [Marein] (10 µM) 0
O=C(NCCCNc1nc(Nc2cccc(NC(=O)N3CCCC3)c2)ncc1I)c1cccs1 (2.5 µM) 0
CN(CCNc1ccc2ncc(-c3ccc(C(N)=O)cc3)n2n1)C(=O)OC(C)(C)C (10 µM) 0
C=C(C)C(=O)Nc1cccc(-c2ncnc3[nH]cc(C(=O)OCC)c23)c1 (10 µM) 0

A stretch taken from the entries so far:
kinase-Nluc reporter destabilization hit call, inactive:
Cn1cc(-c2ccc(CNc3cc(-c4cnc5cc(OCCCN6CCCC6)ccn45)ncn3)cc2)cn1 (10 µM) 0
Cc1ccc(S(=O)(=O)Nc2ccccc2C=Nc2ccccc2NS(=O)(=O)c2ccc(C)cc2)cc1 (10 µM) 0
